This passage reports z-score results from PubChem BioAssay AID817 (Emory University Molecular Libraries Screening Center, 2007).

The list shows a part of the results.

The assay in a line: restorers of sdo1-deficient yeast growth – S. cerevisiae, bone marrow failure model, primary screen (AID 817).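 Note: z-score against mean and SD of all compound wells on the same plate.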 As to conditions: S. cerevisiae sdo1-depleted JHY4D growth rescue, OD600; measured here: growth rescue at 24 h; at 10 µM; stronger effect = higher value; pdr5 snq2 efflux-pump mutant strain.
The molecule `Fc1ccccc1NC1CCN(Cc2ccccc2)CC1` came in with a z-score of -0.75. Then `CCN1CCC(Nc2cccc(F)c2)CC1`, with 0.05; and `CCOc1ncccc1C(=O)NCC1(N2CCOCC2)CCCCC1`, with 0.75; and `CCC(CO)(C(=O)OC1CN2CCC1CC2)c1ccccc1` (stereo not drawn), with 0.07.

For the molecule `N/C(=N\O)c1c(N)no[n+]1[O-]`, the z-score was 1.42. Then `O=C(OC1CN2CCC1CC2)C1c2ccccc2C=Cc2ccccc21` (stereo not drawn), with -0.48; and `c1ccc(CN2CCC(Nc3ccccc3)CC2)cc1`, with -0.76. With `N#CC1(Nc2ccccc2)CCN(CCc2ccccc2)CC1` the figure was 0.89. As for `CN1CCN(CCOC(=O)C(O)(c2ccccc2)c2ccccc2)CC1`, the z-score was -0.92. `O=C(NCC1(N2CCOCC2)CCCCC1)c1cc(=O)[nH]c2ccccc12` came in with a z-score of 0.41. As to `O=C(NCC1(N2CCOCC2)CCCCC1)c1cc2ccccc2o1`, the z-score is -0.38. Consider `O=C(OC1CN2CCC1CC2)C1c2ccccc2Oc2ccccc21` (stereo not drawn), for which the z-score is -0.15. As for `COc1ccc(NC2CCN(CCc3ccccc3)CC2)c(OC)c1`, the z-score is -0.14.
